Experimental data from patent publication US20100239596A1, “GRP78 AND TUMOR ANGIOGENESIS” (UNIVERSITY OF SOUTHERN CALIFORNIA, priority 2007, published 2010).
Some of these results come from one statement about several compounds together. At least one compound was matched to its structure with a doubt left.

System: TuBEC (tumor-associated brain endothelial cells)
Type: cell-based
Settings: TuBEC without siGRP78A; CPT-11 100 μM, Eto 50 μM, temozolomide 300 μM; seven days
Experimental: Cell death ELISA. EC were treated with etoposide (Calbiochem; La Jolla, Calif.), temozolomide (TMZ) (Schering-Plough; Kenilworth, N.J.), CPT-11 (Pharmacia; New York, N.Y.), the caspase inhibitor Q-VDOPH (Calbiochem), or EGCG (Sigma-Aldrich, St. Louis, Mo.), then assayed using the Cell Death Detection ELISA Plus kit (Roche Diagnostics; Indianapolis, Ind.) according to manufacturer's protocol. Percent death was calculated based on 100% positive cell death control.
Lentiviral construct. The sequences of siRNA, the isolation of human Grp78 cDNA and their subcloning into lentiviral constructs are previously described (Dong et al, Cancer Res., 65:5785-91, 2005). The sequences of the siRNA against human GRP78 are: siGRP78A: 5′-[…]-3′ (SEQ ID NO:1) and siGRP78B: 5′-[…]-3′ (SEQ ID NO:2). […] The IRES sequence was inserted between the human GRP78 gene and the EGFP allowing hGRP78 expression to be monitored by EGFP fluorescence. […] Infected cells, monitored for GFP, were used when cultures were 100% GFP positive.
To test whether GRP78 confers drug resistance to TuBEC, TuBEC cultures were infected with lentivirus expressing siGRP78A and siCtr1A. […] After treatment for seven days, the cells were analyzed for cytotoxicity.
To target GRP78 through a small molecule approach, TuBEC were incubated with EGCG alone or in combination with TMZ, CPT-11, and Eto. Cytotoxicity was measured after seven days (FIG. 3D).

## CCc1c2c(nc3ccc(OC(=O)N4CCC(N5CCCCC5)CC4)cc13)-c1cc3c(c(=O)n1C2)COC(=O)[C@]3(O)CC [CPT-11]
  cell death, drug alone: < 10%
